# Assay results

Data taken from PubChem BioAssay AID504749, deposited by NCATS (2011).

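A panel of P. falciparum strains inside erythrocytes is exposed to compounds for three days, then a DNA-binding dye reports the amount of parasite DNA.
Each compound was titrated across a series from about 0.000037 to 29 µM.
The number is the fitted AC50, the concentration giving a half-maximal change in signal; a lower value means higher potency, whether the curve shows a decrease or an increase.
Calls follow the curve class and fit quality: every row here is inconclusive, covering signal-raising curves and weak, poorly fitted, partial or highest-dose-only inhibition curves.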

Values are in µM.
Every entry below has the call inconclusive.
These entries are mostly ones the record files as inconclusive; other results of the assay are not listed here.
Potencies fitted to partial, single-point or poorly fitting curves are rough.
The first word of each remark tells which way the curve ran; it can be opposite to the aim of the assay.

- Cc1nc2ccccn2c(=O)c1CCN1CCC(C(=O)c2ccc(F)cc2)CC1 [Dd2] | fitted potency 10 µM (inhibitor, single point)
- Cc1nc2ccccn2c(=O)c1CCN1CCC(C(=O)c2ccc(F)cc2)CC1 [DIV30] | fitted potency 10.69 µM (inhibitor, partial curve, poor fit)
- Cc1nc2ccccn2c(=O)c1CCN1CCC(C(=O)c2ccc(F)cc2)CC1 [CP194] | fitted potency 16.94 µM (inhibitor, partial curve, poor fit)
- Cc1nc2ccccn2c(=O)c1CCN1CCC(C(=O)c2ccc(F)cc2)CC1 [GB4] | fitted potency 16.94 µM (inhibitor, partial curve, poor fit)
- Cc1nc2ccccn2c(=O)c1CCN1CCC(C(=O)c2ccc(F)cc2)CC1 [PAD] | fitted potency 11.22 µM (inhibitor, single point)
- Cc1nc2ccccn2c(=O)c1CCN1CCC(C(=O)c2ccc(F)cc2)CC1 [TAB109] | fitted potency 7.08 µM (inhibitor, partial curve)
- Cc1nc2ccccn2c(=O)c1CCN1CCC(C(=O)c2ccc(F)cc2)CC1 [P94_40] | fitted potency 17.78 µM (inhibitor, single point)
- Cc1nc2ccccn2c(=O)c1CCN1CCC(C(=O)c2ccc(F)cc2)CC1 [TAB165] | fitted potency 15.85 µM (inhibitor, single point)
- Cc1nc2ccccn2c(=O)c1CCN1CCC(C(=O)c2ccc(F)cc2)CC1 [ATS189] | fitted potency 10 µM (inhibitor, single point)
- C/C=C/C=N/NC(=O)c1ccncc1 [CP297] | fitted potency 0.0151 µM (inhibitor, full curve, poor fit)
- Cc1cc2c(s1)Nc1ccccc1N=C2N1CCN(C)CC1 [7G8] | fitted potency 17.78 µM (inhibitor, single point)
- Cc1cc2c(s1)Nc1ccccc1N=C2N1CCN(C)CC1 [W2] | fitted potency 12 µM (inhibitor, single point)
- Cc1cc2c(s1)Nc1ccccc1N=C2N1CCN(C)CC1 [PC26] | fitted potency 9.528 µM (inhibitor, single point)
- Cc1cc2c(s1)Nc1ccccc1N=C2N1CCN(C)CC1 [GB4] | fitted potency 6.746 µM (inhibitor, partial curve, poor fit)
- CCOC(=O)c1c(C)n(C)c2ccc(O)cc12 [N140] | fitted potency 10 µM (activator, partial curve)
- CCOC(=O)c1c(C)n(C)c2ccc(O)cc12 [CP211] | fitted potency 0.0017 µM (activator, full curve, poor fit)
- CNCCc1ccccn1 [CP201] | fitted potency 0.7208 µM (activator, partial curve, poor fit)
- CNCCc1ccccn1 [CP297] | fitted potency 0.001 µM (activator)
- Nc1ccc(C(=O)Nc2ccccc2N)cc1 [DIV30] | fitted potency 0.0426 µM (activator, partial curve)
- NC(N)=NCCN1CCCCCCC1 [CP215] | fitted potency 5.103 µM (inhibitor, single point)
- Nc1c(Br)cc(Br)cc1CNC1CCC(O)CC1 (centres undefined) [CP237] | fitted potency 10 µM (inhibitor, single point)
- Nc1c(Br)cc(Br)cc1CNC1CCC(O)CC1 (centres undefined) [CP286] | fitted potency 10 µM (inhibitor, single point)
- Nc1c(Br)cc(Br)cc1CNC1CCC(O)CC1 (centres undefined) [ICS] | fitted potency 10 µM (inhibitor, single point)
- Nc1c(Br)cc(Br)cc1CNC1CCC(O)CC1 (centres undefined) [GB4] | fitted potency 10.69 µM (inhibitor, partial curve)
- Nc1c(Br)cc(Br)cc1CNC1CCC(O)CC1 (centres undefined) [CP203] | fitted potency 16.94 µM (inhibitor, partial curve, poor fit)
- Nc1c(Br)cc(Br)cc1CNC1CCC(O)CC1 (centres undefined) [CP335] | fitted potency 12 µM (inhibitor, single point)
- CCCOC(=O)c1ccc(O)cc1 [7G8] | fitted potency 11.22 µM (inhibitor, single point)
- CN=C(NC#N)NCCSCc1csc(N=C(N)N)n1 [TAB109] | fitted potency 3.548 µM (inhibitor, single point)
- CCCCCCCC/C=C\CCCCCCCC(=O)O [TAB109] | fitted potency 2.818 µM (inhibitor, single point)
- CCCCCCCC/C=C\CCCCCCCC(=O)O [ECU] | fitted potency 3.981 µM (inhibitor, single point)
- CCCCCCCC/C=C\CCCCCCCC(=O)O [PC15] | fitted potency 3.981 µM (inhibitor, single point)
- CCCCCCCC/C=C\CCCCCCCC(=O)O [parasite line B] | fitted potency 3.981 µM (inhibitor, single point)

Repeated from the top, 3 entries:

Result for Cc1nc2ccccn2c(=O)c1CCN1CCC(C(=O)c2ccc(F)cc2)CC1 [Dd2] was fitted potency 10 µM (inhibitor, single point).
Result for Cc1nc2ccccn2c(=O)c1CCN1CCC(C(=O)c2ccc(F)cc2)CC1 [DIV30] was fitted potency 10.69 µM (inhibitor, partial curve, poor fit).
Result for Cc1nc2ccccn2c(=O)c1CCN1CCC(C(=O)c2ccc(F)cc2)CC1 [CP194] was fitted potency 16.94 µM (inhibitor, partial curve, poor fit).